Measurements taken from patent EP0730651B1.
No constants are given. Whether binding was seen depends on the method and setting. Some results given as binding are weak or reduced against the parent protein; the word gives no strength.

Sequences of proteins named here, by UniProt entry; tags and fusion partners are left off. A change or cut given only in a name is not applied to a line headed by its entry. Residues count along the entry.
UniProt P16092: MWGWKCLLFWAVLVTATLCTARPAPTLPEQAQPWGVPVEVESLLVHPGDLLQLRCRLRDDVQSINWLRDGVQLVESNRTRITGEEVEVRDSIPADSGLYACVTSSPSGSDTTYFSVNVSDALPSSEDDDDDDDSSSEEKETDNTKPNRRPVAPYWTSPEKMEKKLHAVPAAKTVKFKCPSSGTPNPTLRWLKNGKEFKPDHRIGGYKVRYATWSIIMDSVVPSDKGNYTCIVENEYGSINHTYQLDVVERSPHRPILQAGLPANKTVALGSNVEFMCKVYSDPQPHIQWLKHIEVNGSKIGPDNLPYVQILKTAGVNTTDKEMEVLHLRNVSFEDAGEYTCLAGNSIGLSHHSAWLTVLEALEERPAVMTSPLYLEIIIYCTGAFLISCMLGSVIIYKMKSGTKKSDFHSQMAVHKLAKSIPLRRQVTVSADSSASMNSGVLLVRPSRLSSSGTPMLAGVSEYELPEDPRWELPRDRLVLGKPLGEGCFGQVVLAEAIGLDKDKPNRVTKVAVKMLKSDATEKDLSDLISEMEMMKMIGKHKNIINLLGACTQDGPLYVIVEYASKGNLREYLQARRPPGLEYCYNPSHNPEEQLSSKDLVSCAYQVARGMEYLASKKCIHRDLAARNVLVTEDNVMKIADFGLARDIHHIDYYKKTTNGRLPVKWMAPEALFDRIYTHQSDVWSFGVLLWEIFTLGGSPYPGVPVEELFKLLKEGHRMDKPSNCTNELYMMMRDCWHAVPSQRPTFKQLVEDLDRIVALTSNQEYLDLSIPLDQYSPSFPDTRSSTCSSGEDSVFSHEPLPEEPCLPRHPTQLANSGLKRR
FGF-receptor type 1 (FGFR1) present on NIH 3T3 cells: residues 22-822 of P16092
soluble FGF receptor 1 (FGFR-1; flg) alkaline phosphatase fusion (FRAP): residues 22-376 of P16092
UniProt P21803, residues 22-377: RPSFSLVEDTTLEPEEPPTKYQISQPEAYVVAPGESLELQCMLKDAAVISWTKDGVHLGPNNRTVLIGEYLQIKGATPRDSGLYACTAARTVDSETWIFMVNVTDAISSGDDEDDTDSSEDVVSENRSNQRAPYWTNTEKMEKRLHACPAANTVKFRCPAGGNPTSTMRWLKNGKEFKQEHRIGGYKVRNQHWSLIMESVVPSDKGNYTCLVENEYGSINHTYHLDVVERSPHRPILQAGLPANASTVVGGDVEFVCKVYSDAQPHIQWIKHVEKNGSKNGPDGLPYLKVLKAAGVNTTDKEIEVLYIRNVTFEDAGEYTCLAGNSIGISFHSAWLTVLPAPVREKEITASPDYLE

How the values were obtained:
[1] = biological target: FGF-receptor type 1 (FGFR1) present on NIH 3T3 cells (UniProt P16092); test: competition binding on NIH 3T3 cells
[2] = biological target: soluble FGF receptor 1 (FGFR-1; flg) alkaline phosphatase fusion (FRAP) (murine) (UniProt P16092); test: displacement of 125I-FGF-2 from soluble FGFR1-AP
[3] = biological target: soluble FGF receptor 1 (FGFR-1; flg) alkaline phosphatase fusion (FRAP) (murine) (UniProt P16092); test: chemical cross-linking of radiolabelled FGF to the soluble receptor, autoradiography
[4] = biological target: soluble FGF receptor 2 (FGFR-2; bek) alkaline phosphatase fusion (FRAP) (murine) (UniProt P21803); test: as above

binding [1]: binds | binding [2]: binds | binding [3]: binds | binding [4]: binds
Substance: fibroblast growth factor-2 (FGF-2), wild type (from UniProt P09038 1-155) (ligand)
